6 compounds from PubChem BioAssay AID250 (DTP/NCI, 2004) can be followed below.

In test [1] the test system is BDF1 mice, L1210 leukemia sc, survival T/C. As to the kind of experiment: NCI In Vivo Anticancer Drug Screen. Data for tumor model L1210 Leukemia (subcutaneous) in B6D2F1 (BDF1) mice. To be noted: T/C endpoint: median survival time, higher T/C = longer survival. An outline of the steps:
(§1)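 Read-out: T/C ratio, i.e. survival or tumor size in treated mice over that in vehicle-treated controls, from mice bearing transplantable tumors.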

The subject of test [2] is BDF1 mice, L1210 leukemia sc. The description is as above. To be noted: T/C endpoint: median survival time, higher T/C = longer survival. An outline of the steps: as §1
Where [3] appears, read: dose: 8.0 mg/kg/injection, schedule: Q01DX009 (ip), vehicle: water.
The mark [4] stands for this setting: dose: 8.0 mg/kg/injection, schedule: Q01DX009 (sc), vehicle: water.
The mark [5] stands for this setting: dose: 16.0 mg/kg/injection, schedule: Q01DX009 (ip), vehicle: water.
[6] abbreviates: dose: 16.0 mg/kg/injection, schedule: Q01DX009 (sc), vehicle: water.
Where [7] appears, read: dose: 108.0 mg/kg/injection, schedule: Q01DX Z (sc), vehicle: saline.
Setting [8] is: dose: 180.0 mg/kg/injection, schedule: Q01DX Z (sc), vehicle: saline.
Setting [9] is: dose: 36.0 mg/kg/injection, schedule: Q01DX Z (sc), vehicle: saline.

The list shows only some results of the screen, not a fair sample: it gathers tests that were run many times, whatever their T/C, doses with no T/C, and many T/C values between a quarter and a half above the control. Other doses and runs of a compound stand elsewhere. T/C is the treated group as % of the vehicle group. Some doses have a count of surviving animals in place of a T/C: the source holds a T/C of zero for them, seemingly a mark for toxic or unscored doses. Some survivor counts are full or nearly so, which does not show that the dose was tolerated: survival well below the control is almost never listed, so the zero probably covers shortened survival too. For part of these data: Counts of survivors are from the toxicity check (mostly the fifth day) where no day follows; animals may have died later. Schedules are NCI's codes, read here as Q, the interval in days (D) or hours (H), X, the number of doses. Some schedules carry Z or #; the key to these is not given. Some doses were run more than once; the results are listed from low to high. Where survival is the endpoint, the PubChem record calls one and a half times the control and up active, and a quarter to a half above the control has no call in these data; cut-offs in other NCI protocols can differ. Some T/C values carry the count of animals alive at the toxicity check (mostly the fifth day); without a count, all were alive then. Additions like (4×) say how often a value occurs here.

`C[C@H](N)C(=O)N[C@@H]1[C@H]2C(=C(O)C[C@@H](O)[C@@H]2O)C(=O)O[C@@H]1C`: the survivor count in test [1] (dose: 233.0 mg/kg/injection, schedule: Q01DX Z (sc), vehicle: saline) was 3 of 10; in test [1] (dose: 1080.0 mg/kg/injection, schedule: Q01DX Z (sc), vehicle: saline), 5 of 10. The T/C in test [2] (dose: 648.0 mg/kg/injection, schedule: Q01DX Z (sc), vehicle: saline) is 137 % of control [9 of 10 alive]; in test [2] (dose: 833.0 mg/kg/injection, schedule: Q01DX Z (sc), vehicle: saline) it was 130 % of control; in test [2] (dose: 833.0 mg/kg/injection, schedule: Q#A X Z (sc), vehicle: saline), 138 % of control; in test [2] (dose: 1388.0 mg/kg/injection, schedule: Q01DX Z (sc), vehicle: saline), 130 % of control.

Regarding `OC(C1CO1)C(O)C1CO1` (stereo not given), the survivor count in test [1] (setting [3]) was 8 of 8; in test [1] (setting [4]), 8 of 8; in test [1] (setting [5]), 4 of 8; in test [1] (setting [6]), 5 of 8; in test [1] (dose: 16.0 mg/kg/injection, schedule: Q04DX003 (ip), vehicle: water), 2 of 8; in test [1] (dose: 16.0 mg/kg/injection, schedule: Q04DX003 (sc), vehicle: water), 2 of 8. The survivor count is on record as 3 of 8 in test [1] (dose: 32.0 mg/kg/injection, schedule: Q04DX003 (ip), vehicle: water) and 2 of 8 in test [1] (dose: 32.0 mg/kg/injection, schedule: Q04DX003 (sc), vehicle: water). In addition, the T/C was 144 % of control in test [2] (dose: 2.0 mg/kg/injection, schedule: Q01DX009 (ip), vehicle: water); 133 % of control in test [2] (dose: 4.0 mg/kg/injection, schedule: Q01DX009 (ip), vehicle: water); 133 % of control in test [2] (dose: 4.0 mg/kg/injection, schedule: Q01DX009 (sc), vehicle: water).

As to `NC(CSC(c1ccccc1)(c1ccccc1)c1ccccc1)C(=O)O` (stereo not given), the survivor count in test [1] (dose: 65.0 mg/kg/injection, schedule: Q03HX003 (sc), vehicle: saline) is 8 of 8; in test [1] (dose: 108.0 mg/kg/injection, schedule: Q01DX009 (sc), vehicle: saline), 8 of 8; in test [1] (dose: 180.0 mg/kg/injection, schedule: Q01DX009 (sc), vehicle: saline), 8 of 8; in test [1] (dose: 300.0 mg/kg/injection, schedule: Q01DX009 (sc), vehicle: saline), 8 of 8; in test [1] (dose: 500.0 mg/kg/injection, schedule: Q01DX009 (sc), vehicle: saline), 8 of 8. Moreover, the T/C was 125 % of control in test [2] (dose: 14.0 mg/kg/injection, schedule: Q03HX003 (sc), vehicle: saline); 132 % of control in test [2] (dose: 39.0 mg/kg/injection, schedule: Q01DX009 (sc), vehicle: saline); 125 % of control in test [2] (dose: 39.0 mg/kg/injection, schedule: Q02DX005 (sc), vehicle: saline); 128 % of control in test [2] (dose: 65.0 mg/kg/injection, schedule: Q02DX005 (sc), vehicle: saline); 135 % of control in test [2] (dose: 108.0 mg/kg/injection, schedule: Q02DX005 (sc), vehicle: saline); 142 % of control in test [2] (dose: 180.0 mg/kg/injection, schedule: Q02DX005 (sc), vehicle: saline). The T/C in test [2] (dose: 180.0 mg/kg/injection, schedule: Q04DX003 (sc), vehicle: saline) was 142 % of control; in test [2] (dose: 300.0 mg/kg/injection, schedule: Q04DX003 (sc), vehicle: saline), 132 % of control; in test [2] (dose: 500.0 mg/kg/injection, schedule: Q04DX003 (sc), vehicle: saline), 142 % of control.

As for `CO[C@@]12[C@H](COC(N)=O)C3=C(C(=O)C(C)=C(N)C3=O)N1C[C@@H]1N[C@@H]12`, the survivor count in test [1] (setting [3]) is 10 of 10; in test [1] (setting [4]), 10 of 10; in test [1] (setting [5]), 9 of 10; in test [1] (setting [6]) it was 10 of 10. Also, the T/C in test [2] (dose: 3.64 mg/kg/injection, schedule: Q01DX Z (sc), vehicle: saline) is 129 % of control; in test [2] (dose: 5.0 mg/kg/injection, schedule: Q01DX Z (sc), vehicle: saline), 127 % of control; in test [2] (dose: 8.4 mg/kg/injection, schedule: Q02DX Z (sc), vehicle: saline) it was 136 % of control; in test [2] (dose: 14.0 mg/kg/injection, schedule: Q01DX001 (sc), vehicle: saline) it was 127 % of control; in test [2] (dose: 14.0 mg/kg/injection, schedule: Q## X Z (sc), vehicle: saline), 136 % of control [9 of 10 alive].

As to `O=c1[nH]c(=O)n(C2CC(O)C(CO)O2)cc1F` (stereo not given), the T/C is 120 [9 of 10 alive], 150, 155 % of control in test [1] (setting [7]); 150, 155, 160 % of control in test [1] (setting [8]); 130 % of control in test [2] (dose: 65.0 mg/kg/injection, schedule: Q01DX Z (sc), vehicle: saline); 129 % of control in test [2] (dose: 80.0 mg/kg/injection, schedule: Q01DX009 (sc), vehicle: water); 127 % of control in test [2] (setting [7]); 144 % of control in test [2] (dose: 128.0 mg/kg/injection, schedule: Q01DX Z (sc), vehicle: saline). Further, the T/C in test [2] (dose: 160.0 mg/kg/injection, schedule: Q01DX009 (ip), vehicle: water) was 140 % of control; in test [2] (dose: 160.0 mg/kg/injection, schedule: Q01DX009 (sc), vehicle: water), 125 % of control; in test [2] (setting [8]) it was 145 % of control [9 of 10 alive]; in test [2] (dose: 300.0 mg/kg/injection, schedule: Q01DX Z (sc), vehicle: saline) it was 140 (2×), 141 [7 of 10 alive], 144 % of control; in test [2] (dose: 500.0 mg/kg/injection, schedule: Q01DX Z (sc), vehicle: saline), 130 and 135 % of control.

As for `C=CC(CN1CC1)OC(C)=O` (stereo not given), the survivor count in test [1] (dose: 2.8 mg/kg/injection, schedule: Q01DX Z (sc), vehicle: saline) is 0 of 10; in test [1] (dose: 4.7 mg/kg/injection, schedule: Q01DX Z (sc), vehicle: saline) it was 4 of 10; in test [1] (dose: 7.8 mg/kg/injection, schedule: Q01DX Z (sc), vehicle: saline), 6 of 10; in test [1] (dose: 13.0 mg/kg/injection, schedule: Q01DX Z (sc), vehicle: saline), 5 of 10; in test [1] (dose: 22.0 mg/kg/injection, schedule: Q01DX Z (sc), vehicle: saline), 6 of 10; in test [1] (setting [9]), 7 of 10. The survivor count in test [1] (dose: 60.0 mg/kg/injection, schedule: Q01DX Z (sc), vehicle: saline) is 4 of 10; in test [1] (dose: 100.0 mg/kg/injection, schedule: Q01DX Z (sc), vehicle: saline) it was 0 of 10 and 5 of 10. The T/C in test [2] (setting [9]) is 133 % of control.
